In the supplement of paper PMC10849652:
This is one part of the list.

Protein sequences, listed by entry. Tags and fused reporters are not part of them. Lines headed by an entry give the natural chain unless they say otherwise; changes in a name come on top.
UniProt Q9P2Y5: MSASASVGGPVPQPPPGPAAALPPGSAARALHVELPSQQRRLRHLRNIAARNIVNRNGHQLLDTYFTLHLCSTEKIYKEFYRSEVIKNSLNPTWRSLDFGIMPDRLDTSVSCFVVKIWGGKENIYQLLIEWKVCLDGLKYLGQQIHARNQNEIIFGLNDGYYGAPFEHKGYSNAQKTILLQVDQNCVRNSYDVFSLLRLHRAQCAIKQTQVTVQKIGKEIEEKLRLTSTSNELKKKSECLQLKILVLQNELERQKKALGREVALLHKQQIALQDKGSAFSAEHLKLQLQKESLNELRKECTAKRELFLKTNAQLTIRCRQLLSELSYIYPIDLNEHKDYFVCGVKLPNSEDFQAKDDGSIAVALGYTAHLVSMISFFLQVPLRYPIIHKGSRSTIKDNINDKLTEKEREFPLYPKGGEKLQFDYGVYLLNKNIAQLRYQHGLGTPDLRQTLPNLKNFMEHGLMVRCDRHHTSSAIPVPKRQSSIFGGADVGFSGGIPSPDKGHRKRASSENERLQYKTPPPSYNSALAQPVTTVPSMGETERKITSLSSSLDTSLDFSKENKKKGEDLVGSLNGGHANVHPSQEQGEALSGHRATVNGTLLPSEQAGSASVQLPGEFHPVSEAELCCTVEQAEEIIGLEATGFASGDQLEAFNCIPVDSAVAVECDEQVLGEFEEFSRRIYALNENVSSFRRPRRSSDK
UniProt Q92900: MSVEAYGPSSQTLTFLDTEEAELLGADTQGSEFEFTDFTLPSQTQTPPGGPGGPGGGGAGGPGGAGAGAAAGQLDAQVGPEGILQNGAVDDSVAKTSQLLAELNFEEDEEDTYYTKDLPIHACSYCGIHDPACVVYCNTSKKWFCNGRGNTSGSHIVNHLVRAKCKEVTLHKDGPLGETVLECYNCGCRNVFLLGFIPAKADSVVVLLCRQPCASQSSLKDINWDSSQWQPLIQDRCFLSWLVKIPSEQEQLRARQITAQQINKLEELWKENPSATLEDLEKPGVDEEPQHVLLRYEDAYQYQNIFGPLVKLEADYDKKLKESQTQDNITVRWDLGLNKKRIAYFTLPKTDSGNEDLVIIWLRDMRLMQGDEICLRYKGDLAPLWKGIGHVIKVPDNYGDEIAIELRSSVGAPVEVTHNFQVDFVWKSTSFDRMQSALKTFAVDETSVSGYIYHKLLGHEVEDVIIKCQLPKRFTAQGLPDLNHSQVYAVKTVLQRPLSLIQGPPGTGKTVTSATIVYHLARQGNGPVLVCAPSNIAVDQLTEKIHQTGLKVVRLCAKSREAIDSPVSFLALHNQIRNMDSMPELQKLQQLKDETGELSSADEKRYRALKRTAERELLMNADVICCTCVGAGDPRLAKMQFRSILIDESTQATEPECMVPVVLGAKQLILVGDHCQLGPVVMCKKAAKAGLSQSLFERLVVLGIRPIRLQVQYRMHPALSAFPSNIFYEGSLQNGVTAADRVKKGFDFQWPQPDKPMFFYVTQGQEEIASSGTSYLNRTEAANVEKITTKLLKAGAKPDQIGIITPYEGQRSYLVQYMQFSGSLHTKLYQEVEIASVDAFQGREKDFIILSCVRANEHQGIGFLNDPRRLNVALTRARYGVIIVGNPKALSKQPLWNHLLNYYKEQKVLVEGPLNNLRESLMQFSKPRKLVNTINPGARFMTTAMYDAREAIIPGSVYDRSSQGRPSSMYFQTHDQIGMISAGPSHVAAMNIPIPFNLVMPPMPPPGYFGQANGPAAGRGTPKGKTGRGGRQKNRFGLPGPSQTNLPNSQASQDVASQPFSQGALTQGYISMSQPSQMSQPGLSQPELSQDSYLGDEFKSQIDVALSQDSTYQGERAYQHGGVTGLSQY
UniProt Q08AM6: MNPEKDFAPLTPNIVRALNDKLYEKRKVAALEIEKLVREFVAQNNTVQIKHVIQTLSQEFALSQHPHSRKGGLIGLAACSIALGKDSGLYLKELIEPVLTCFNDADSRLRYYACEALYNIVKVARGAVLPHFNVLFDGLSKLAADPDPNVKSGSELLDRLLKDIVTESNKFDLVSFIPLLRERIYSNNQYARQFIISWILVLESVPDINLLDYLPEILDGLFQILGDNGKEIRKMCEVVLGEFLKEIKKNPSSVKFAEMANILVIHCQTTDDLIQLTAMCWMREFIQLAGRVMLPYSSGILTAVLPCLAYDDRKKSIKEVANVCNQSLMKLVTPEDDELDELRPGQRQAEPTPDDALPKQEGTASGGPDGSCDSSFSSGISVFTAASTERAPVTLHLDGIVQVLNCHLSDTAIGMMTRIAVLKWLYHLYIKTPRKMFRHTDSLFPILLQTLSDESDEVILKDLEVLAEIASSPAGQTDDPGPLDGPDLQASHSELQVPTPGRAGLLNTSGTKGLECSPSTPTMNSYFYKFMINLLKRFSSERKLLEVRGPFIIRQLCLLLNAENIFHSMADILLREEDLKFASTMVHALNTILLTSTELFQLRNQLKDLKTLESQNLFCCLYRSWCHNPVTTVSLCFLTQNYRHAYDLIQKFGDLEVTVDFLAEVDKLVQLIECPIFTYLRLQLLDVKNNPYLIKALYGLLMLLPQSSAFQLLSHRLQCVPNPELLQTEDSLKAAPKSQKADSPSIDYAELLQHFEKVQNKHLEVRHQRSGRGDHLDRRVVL
UniProt P51809, whole entry, looked up: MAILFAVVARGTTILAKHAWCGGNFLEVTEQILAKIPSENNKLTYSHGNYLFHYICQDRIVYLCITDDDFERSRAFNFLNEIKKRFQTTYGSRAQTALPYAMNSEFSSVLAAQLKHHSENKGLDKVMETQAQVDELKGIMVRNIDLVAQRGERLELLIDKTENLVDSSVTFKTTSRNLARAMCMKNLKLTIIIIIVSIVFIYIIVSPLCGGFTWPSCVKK
UniProt Q9Y5J1: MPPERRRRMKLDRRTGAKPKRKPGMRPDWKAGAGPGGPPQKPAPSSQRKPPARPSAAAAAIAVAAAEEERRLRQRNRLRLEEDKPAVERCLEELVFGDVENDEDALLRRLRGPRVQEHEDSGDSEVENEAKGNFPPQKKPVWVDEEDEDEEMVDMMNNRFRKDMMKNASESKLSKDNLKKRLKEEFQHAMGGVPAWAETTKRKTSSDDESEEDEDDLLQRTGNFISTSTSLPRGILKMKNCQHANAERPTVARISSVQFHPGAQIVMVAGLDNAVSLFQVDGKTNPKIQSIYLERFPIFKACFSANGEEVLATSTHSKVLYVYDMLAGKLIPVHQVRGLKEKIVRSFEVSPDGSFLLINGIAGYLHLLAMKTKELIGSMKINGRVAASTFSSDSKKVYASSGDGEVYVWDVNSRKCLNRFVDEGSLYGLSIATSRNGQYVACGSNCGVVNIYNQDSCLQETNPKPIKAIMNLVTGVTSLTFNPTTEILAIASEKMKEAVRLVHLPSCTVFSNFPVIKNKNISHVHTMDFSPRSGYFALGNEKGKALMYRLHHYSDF
UniProt Q9NZ43: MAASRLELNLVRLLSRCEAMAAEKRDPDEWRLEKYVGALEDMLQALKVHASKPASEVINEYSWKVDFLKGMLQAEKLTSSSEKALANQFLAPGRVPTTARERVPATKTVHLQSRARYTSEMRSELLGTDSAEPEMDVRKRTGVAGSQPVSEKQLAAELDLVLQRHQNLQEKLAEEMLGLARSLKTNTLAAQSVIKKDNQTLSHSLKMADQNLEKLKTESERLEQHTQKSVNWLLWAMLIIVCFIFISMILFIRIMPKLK
UniProt P51784: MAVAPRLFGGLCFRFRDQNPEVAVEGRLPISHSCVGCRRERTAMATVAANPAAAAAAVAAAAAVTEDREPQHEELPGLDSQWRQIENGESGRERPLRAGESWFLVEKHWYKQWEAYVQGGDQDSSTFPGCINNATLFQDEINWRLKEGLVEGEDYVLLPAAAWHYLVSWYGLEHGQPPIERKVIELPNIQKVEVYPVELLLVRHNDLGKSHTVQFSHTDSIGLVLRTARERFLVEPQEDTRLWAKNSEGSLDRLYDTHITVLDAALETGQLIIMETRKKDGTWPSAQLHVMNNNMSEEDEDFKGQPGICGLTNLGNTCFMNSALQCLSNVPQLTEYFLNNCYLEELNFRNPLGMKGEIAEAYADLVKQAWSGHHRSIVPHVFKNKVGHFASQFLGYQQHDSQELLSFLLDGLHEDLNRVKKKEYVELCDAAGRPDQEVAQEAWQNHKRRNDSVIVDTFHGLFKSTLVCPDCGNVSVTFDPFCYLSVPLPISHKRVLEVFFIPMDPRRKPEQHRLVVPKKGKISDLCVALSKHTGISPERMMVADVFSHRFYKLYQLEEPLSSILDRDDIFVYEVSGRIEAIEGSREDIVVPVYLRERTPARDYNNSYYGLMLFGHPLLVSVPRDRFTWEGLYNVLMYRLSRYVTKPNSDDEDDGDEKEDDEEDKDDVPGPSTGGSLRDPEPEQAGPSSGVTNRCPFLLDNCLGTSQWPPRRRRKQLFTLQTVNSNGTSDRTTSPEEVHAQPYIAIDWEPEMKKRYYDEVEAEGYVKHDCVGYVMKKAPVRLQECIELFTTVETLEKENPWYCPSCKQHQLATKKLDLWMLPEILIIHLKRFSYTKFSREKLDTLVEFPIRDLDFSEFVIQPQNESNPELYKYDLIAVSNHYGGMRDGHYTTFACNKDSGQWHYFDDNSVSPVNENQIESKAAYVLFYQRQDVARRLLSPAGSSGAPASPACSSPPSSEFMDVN
UniProt P14927: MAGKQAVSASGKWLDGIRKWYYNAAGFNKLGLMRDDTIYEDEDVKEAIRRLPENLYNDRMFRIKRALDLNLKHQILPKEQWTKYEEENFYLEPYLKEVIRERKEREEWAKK
UniProt Q9HAU5: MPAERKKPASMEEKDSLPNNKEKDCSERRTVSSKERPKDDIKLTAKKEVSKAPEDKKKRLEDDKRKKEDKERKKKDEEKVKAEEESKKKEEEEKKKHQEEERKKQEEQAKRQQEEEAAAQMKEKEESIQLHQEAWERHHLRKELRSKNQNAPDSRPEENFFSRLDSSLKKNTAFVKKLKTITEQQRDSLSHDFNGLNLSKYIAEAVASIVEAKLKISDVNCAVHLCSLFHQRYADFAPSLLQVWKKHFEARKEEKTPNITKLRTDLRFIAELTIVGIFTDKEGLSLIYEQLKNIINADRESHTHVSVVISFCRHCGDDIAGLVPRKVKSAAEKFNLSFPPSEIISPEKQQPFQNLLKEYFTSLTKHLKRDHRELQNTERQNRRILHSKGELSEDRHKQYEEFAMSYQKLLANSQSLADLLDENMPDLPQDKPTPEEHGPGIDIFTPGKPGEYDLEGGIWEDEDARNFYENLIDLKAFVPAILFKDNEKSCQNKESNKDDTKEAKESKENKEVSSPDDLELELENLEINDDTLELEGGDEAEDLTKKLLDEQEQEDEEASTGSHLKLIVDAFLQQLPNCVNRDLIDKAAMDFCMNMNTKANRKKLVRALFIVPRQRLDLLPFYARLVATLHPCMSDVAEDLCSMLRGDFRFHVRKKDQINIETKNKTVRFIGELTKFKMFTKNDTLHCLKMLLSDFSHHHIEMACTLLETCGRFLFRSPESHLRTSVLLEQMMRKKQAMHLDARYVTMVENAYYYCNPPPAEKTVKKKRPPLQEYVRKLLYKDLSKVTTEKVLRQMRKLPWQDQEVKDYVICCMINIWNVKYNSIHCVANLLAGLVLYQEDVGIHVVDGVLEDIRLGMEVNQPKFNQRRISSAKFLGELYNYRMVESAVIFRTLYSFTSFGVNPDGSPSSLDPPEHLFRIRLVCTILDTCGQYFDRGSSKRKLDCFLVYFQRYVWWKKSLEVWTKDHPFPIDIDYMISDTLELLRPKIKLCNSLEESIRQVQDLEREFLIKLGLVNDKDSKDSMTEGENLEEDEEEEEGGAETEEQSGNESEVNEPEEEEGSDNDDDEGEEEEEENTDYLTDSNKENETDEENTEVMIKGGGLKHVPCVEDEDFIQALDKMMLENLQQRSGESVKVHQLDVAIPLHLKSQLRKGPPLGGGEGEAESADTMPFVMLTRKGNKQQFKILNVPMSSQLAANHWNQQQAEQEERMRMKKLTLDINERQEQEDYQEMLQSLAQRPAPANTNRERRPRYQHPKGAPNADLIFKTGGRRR
UniProt Q9UBK9, whole entry, looked up: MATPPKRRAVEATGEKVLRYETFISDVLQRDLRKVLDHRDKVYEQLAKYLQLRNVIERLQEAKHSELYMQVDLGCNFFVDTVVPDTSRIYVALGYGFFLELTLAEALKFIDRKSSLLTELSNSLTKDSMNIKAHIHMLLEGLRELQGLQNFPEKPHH
UniProt P50552: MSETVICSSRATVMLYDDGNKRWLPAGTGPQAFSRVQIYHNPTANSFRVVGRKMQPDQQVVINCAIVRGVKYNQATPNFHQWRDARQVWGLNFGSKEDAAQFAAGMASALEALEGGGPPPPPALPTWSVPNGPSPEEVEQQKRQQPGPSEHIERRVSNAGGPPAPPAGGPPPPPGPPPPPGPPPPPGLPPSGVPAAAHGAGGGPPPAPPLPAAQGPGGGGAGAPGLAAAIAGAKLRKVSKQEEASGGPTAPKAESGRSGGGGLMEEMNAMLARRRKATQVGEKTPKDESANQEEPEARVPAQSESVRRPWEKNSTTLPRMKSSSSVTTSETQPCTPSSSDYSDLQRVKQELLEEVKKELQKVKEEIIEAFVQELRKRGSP

Tests used:
Assay in all cases: log2 fold change, soluble protein after heating vs DMSO (PISA); higher = thermal stabilisation; K562 lysate, 10 uM; active = over 0.2 and 3.5 SD of the protein, either way, in both replicates (recomputed)
ibrutinib = compound: C=CC(=O)N1CCC[C@@H](n2nc(-c3ccc(Oc4ccccc4)cc3)c3c(N)ncnc32)C1 [ibrutinib]
Procedure, shortened: (§1)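 Thermal stability, expressed as log-two fold change relative to solvent controls, is given from duplicates. Crude K562 extract in PBS pH 7.4 with 1 mM MgCl2, at 1 mg/mL protein, was treated with 10 μM compound for 30 min and heated in aliquots for 3 min across 48°C-58°C. After pooling, adjustment to 0.5% NP-40 at 4°C and centrifugation at 21,000xg for 90 min, supernatant protein was measured by TMTpro 16plex LC-MS/MS with channel sums equalised.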

[1] = compound: CC(=O)c1cnc2ccc(-c3cc(Cl)c(O)c(Cl)c3)nc2c1N[C@H]1CC[C@H](CN(C)C)CC1
Procedure, shortened: as §1

ralimetinib = compound: CC(C)(C)Cn1c(N)nc2ccc(-c3[nH]c(C(C)(C)C)nc3-c3ccc(F)cc3)nc21 [ralimetinib]
Procedure, shortened: as §1

[2] = compound: CC(C)(O)CC(=O)NCCn1ccc2ncnc(Nc3ccc(Oc4cccc(C(F)(F)F)c4)c(Cl)c3)c21
Procedure, shortened: as §1

[3] = compound: CC(C)C1=C2N=C(C=C(N2N=C1)NCC3=CC=CC=C3)NCCCCCCN
Procedure, shortened: as §1

[4] = compound: CC1=C(C(CC(=O)N1)C2=CC=C(C=C2)C(F)(F)F)C(=O)NC3=C(C=C4C(=C3)C=NN4)F
Procedure, shortened: as §1

[5] = compound: CC1=C(C2=C(C=C1)C(=O)C3=CC=CC=C3N2CCCN)C
Procedure, shortened: as §1

[6] = compound: CC1=C(C=C(C=C1)NC(=O)C2=CC(=CC=C2)C(C)(C)C#N)NC3=CC4=C(C=C3)N=CN(C4=O)C
Procedure, shortened: as §1

[7] = compound: CC1=C(C=C(C=C1)NC(=O)C2=CC(=CC=C2)N(C)C)NC(=O)C3=CC=C(C=C3)O
Procedure, shortened: as §1

[8] = compound: CC1=CC=C(C=C1)SC2=C3C=C(SC3=CN=C2)C(=O)N
Procedure, shortened: as §1

vemurafenib = compound: CCCS(=O)(=O)Nc1ccc(F)c(C(=O)c2c[nH]c3ncc(-c4ccc(Cl)cc4)cc23)c1F [vemurafenib]
Procedure, shortened: as §1

[9] = compound: CCCS(=O)(=O)Nc1ccc(F)c(C(=O)c2c[nH]c3ncc(Cl)cc23)c1F
Procedure, shortened: as §1

barasertib = compound: CCN(CCCOc1ccc2c(Nc3cc(CC(=O)Nc4cccc(F)c4)[nH]n3)ncnc2c1)CCOP(=O)(O)O [barasertib]
Procedure, shortened: as §1

[10] = compound: CC[C@@H]1C(=O)N(C)c2cnc(Nc3ccc(C(=O)NC4CCN(C)CC4)cc3OC)nc2N1C1CCCC1
Procedure, shortened: as §1

volasertib = compound: CC[C@@H]1C(=O)N(C)c2cnc(Nc3ccc(C(=O)N[C@H]4CC[C@H](N5CCN(CC6CC6)CC5)CC4)cc3OC)nc2N1C(C)C [volasertib]
Procedure, shortened: as §1

[11] = compound: CCn1c(C(=O)N(C2CC2)C2CC2)cc2c3c(ncn3C)c(Nc3cc(C)n(C)n3)nc21
Procedure, shortened: as §1

[12] = compound: CCn1cc(-c2ccnc3[nH]c(-c4cccc(CN(C)C)c4)cc23)c(-c2ccc(NC(=O)N(C)C)cc2)n1
Procedure, shortened: as §1

[13] = compound: CN1CCC(CNc2ccc3ncc(-c4cccc(OC(F)(F)F)c4)n3n2)CC1
Procedure, shortened: as §1

saracatinib = compound: CN1CCN(CCOc2cc(OC3CCOCC3)c3c(Nc4c(Cl)ccc5c4OCO5)ncnc3c2)CC1 [saracatinib]
Procedure, shortened: as §1

sotrastaurin = compound: CN1CCN(c2nc(C3=C(c4c[nH]c5ccccc45)C(=O)NC3=O)c3ccccc3n2)CC1 [sotrastaurin]
Procedure, shortened: as §1

Target	log2 fold change (ibrutinib)	log2 fold change [1]	log2 fold change (ralimetinib)	log2 fold change [2]	log2 fold change [3]	log2 fold change [4]	log2 fold change [5]	log2 fold change [6]	log2 fold change [7]	log2 fold change [8]	log2 fold change (vemurafenib)	log2 fold change [9]	log2 fold change (barasertib)	log2 fold change [10]	log2 fold change (volasertib)	log2 fold change [11]	log2 fold change [12]	log2 fold change [13]	log2 fold change (saracatinib)	log2 fold change (sotrastaurin)
UHRF1 isoform 2 (UniProt Q96T88)	inactive: 0.013	inactive: -0.043	inactive: 0.06	inactive: 0.062	inactive: 0.02	inactive: -0.021	inactive: -0.06	inactive: 0.018	inactive: 0.073	inactive: 0.006	inactive: 0.06	inactive: 0.031	inactive: 0.149	inactive: 0.002	inactive: -0.012	inactive: -0.026	inactive: -0.022	inactive: -0.022	inactive: 0.024	inactive: 0
UVRAG (UniProt Q9P2Y5)	inactive: -0.05	inactive: 0.016	inactive: -0.048	inactive: -0.003	inactive: -0.01	inactive: 0.04	inactive: 0.033	inactive: -0.009	inactive: 0.015	inactive: -0.045	inactive: -0.014	inactive: 0.015	inactive: 0.042	inactive: 0.018	inactive: -0.009	inactive: 0.018	inactive: -0.02	inactive: 0.025	inactive: -0.032	inactive: -0.007
UPF1 (UniProt Q92900)	inactive: 0.005	inactive: -0.005	inactive: -0.005	inactive: -0.008	inactive: 0.013	inactive: -0.001	inactive: -0.025	inactive: 0.026	inactive: -0.009	inactive: 0	inactive: -0.004	inactive: 0.015	inactive: -0.01	inactive: 0.017	inactive: -0.006	inactive: -0.007	inactive: 0.02	inactive: 0.007	inactive: -0.019	inactive: -0.023
UNK (UniProt Q9C0B0)	inactive: -0.003	inactive: 0.034	inactive: -0.13	inactive: 0.085	inactive: -0.071	inactive: 0.018	inactive: -0.023	inactive: 0.016	inactive: -0.13	inactive: -0.017	inactive: -0.052	inactive: 0.012	inactive: -0.007	inactive: -0.001	inactive: -0.018	inactive: -0.137	inactive: -0.072	inactive: 0.036	inactive: 0	inactive: -0.009
VAC14 (UniProt Q08AM6)	inactive: -0.029	inactive: -0.025	inactive: -0.003	inactive: -0.055	inactive: 0.002	inactive: -0.008	inactive: 0.005	inactive: 0.003	inactive: 0.039	inactive: -0.034	inactive: -0.002	inactive: 0.008	inactive: 0.021	inactive: -0.021	inactive: -0.02	inactive: 0.013	inactive: -0.032	inactive: 0.007	inactive: 0.007	inactive: 0
VAMP7 (UniProt P51809)	inactive: -0.036	inactive: -0.004	inactive: 0.005	inactive: 0.009	inactive: -0.004	inactive: 0.009	inactive: 0.039	inactive: -0.003	inactive: -0.004	inactive: -0.018	inactive: 0.023	inactive: 0.01	inactive: 0.004	inactive: -0.004	inactive: -0.02	inactive: -0.037	inactive: -0.025	inactive: 0.054	inactive: -0.031	inactive: 0.028
USP5 isoform 2 (UniProt P45974)	inactive: 0	inactive: -0.007	inactive: -0.005	inactive: -0.007	inactive: -0.01	inactive: -0.02	inactive: 0.002	inactive: -0.009	inactive: 0.017	inactive: -0.006	inactive: -0.005	inactive: -0.004	inactive: -0.026	inactive: 0.027	inactive: 0.014	inactive: -0.005	inactive: -0.031	inactive: 0.019	inactive: 0.002	inactive: 0.016
UTP18 (UniProt Q9Y5J1)	inactive: 0.125	inactive: -0.031	inactive: 0.002	inactive: -0.017	inactive: 0.033	inactive: 0.057	inactive: -0.085	inactive: -0.017	inactive: 0.028	inactive: 0.023	inactive: -0.011	inactive: 0.067	inactive: -0.036	inactive: 0.057	inactive: -0.069	inactive: 0.024	inactive: -0.004	inactive: -0.042	inactive: 0.031	inactive: 0.012
USE1 (UniProt Q9NZ43)	inactive: -0.039	inactive: -0.026	inactive: -0.095	inactive: -0.102	inactive: -0.086	inactive: 0.024	inactive: -0.025	inactive: -0.007	inactive: 0.007	inactive: 0.027	inactive: -0.071	inactive: -0.049	inactive: 0.021	inactive: 0.036	inactive: 0.04	inactive: 0.093	inactive: 0.002	inactive: -0.103	inactive: -0.02	inactive: 0.017
VAMP2 (UniProt P63027)	inactive: -0.039	inactive: -0.027	inactive: 0.002	inactive: -0.006	inactive: -0.036	inactive: -0.069	inactive: -0.01	inactive: -0.048	inactive: 0.047	inactive: 0.035	inactive: 0.002	inactive: -0.027	inactive: 0.012	active: -0.286	inactive: 0.009	inactive: 0.02	inactive: 0.057	inactive: 0.091	inactive: 0.033	inactive: -0.028
USP11 (UniProt P51784)	inactive: -0.042	inactive: 0.004	inactive: -0.018	inactive: 0.004	inactive: 0.042	inactive: 0.033	inactive: -0.042	inactive: -0.005	inactive: 0.045	inactive: 0.026	inactive: 0.034	inactive: 0.022	inactive: 0.024	inactive: -0.103	inactive: -0.08	inactive: -0.004	inactive: -0.057	inactive: -0.04	inactive: 0.022	inactive: 0.02
UQCRB (UniProt P14927)	inactive: 0.098	inactive: -0.024	inactive: -0.002	inactive: -0.052	inactive: 0.015	inactive: -0.013	inactive: -0.007	inactive: 0.021	inactive: 0.014	inactive: -0.018	inactive: 0.005	inactive: 0.001	inactive: 0.076	inactive: 0.082	inactive: 0.048	inactive: 0.008	inactive: 0.005	inactive: 0.016	inactive: 0.003	inactive: 0.016
UPF2 (UniProt Q9HAU5)	inactive: 0.006	inactive: 0.026	inactive: 0.002	inactive: -0.01	inactive: 0.038	inactive: 0.007	inactive: -0.045	inactive: -0.004	inactive: 0.021	inactive: 0.043	inactive: 0.003	inactive: 0.01	inactive: 0.009	inactive: -0.033	inactive: -0.026	inactive: 0.015	inactive: -0.037	inactive: -0.001	inactive: 0.001	inactive: 0.003
UXT isoform 2 (UniProt Q9UBK9)	inactive: -0.078	inactive: -0.018	inactive: -0.063	inactive: -0.075	inactive: 0.006	inactive: -0.035	inactive: -0.091	inactive: 0	inactive: -0.015	inactive: -0.032	inactive: -0.023	inactive: 0	inactive: 0.056	active: 0.321	inactive: -0.004	inactive: -0.088	inactive: -0.05	inactive: 0.032	inactive: 0.053	inactive: 0.001
VASP (UniProt P50552)	inactive: -0.002	inactive: 0.002	inactive: -0.003	inactive: -0.018	inactive: -0.009	inactive: -0.007	inactive: 0.038	inactive: 0.014	inactive: -0.014	inactive: 0.01	inactive: -0.012	inactive: -0.011	inactive: -0.069	inactive: -0.022	inactive: -0.008	inactive: 0.009	inactive: 0.006	inactive: -0.009	inactive: 0.007	inactive: -0.004
ULBP1 (UniProt Q9BZM6)	inactive: 0.031	inactive: 0.026	inactive: -0.022	inactive: -0.047	inactive: 0.025	inactive: -0.021	inactive: -0.117	inactive: 0.064	inactive: 0.016	inactive: 0.001	inactive: 0.022	inactive: 0.042	inactive: -0.009	inactive: 0.063	inactive: -0.027	inactive: -0.049	inactive: -0.002	inactive: 0.026	inactive: -0.011	inactive: -0.054

Looked up above:
UVRAG (UniProt Q9P2Y5) – log2 fold change [11]: inactive: 0.018
VAC14 (UniProt Q08AM6) – log2 fold change [2]: inactive: -0.055
